Laboratory results from the supplement of paper PMC10849652.
The list shows a part of the results.

Sequences of proteins named here, by UniProt entry; tags and fusion partners are left off. A change or cut given only in a name is not applied to a line headed by its entry.
UniProt Q86TM6, whole entry, looked up: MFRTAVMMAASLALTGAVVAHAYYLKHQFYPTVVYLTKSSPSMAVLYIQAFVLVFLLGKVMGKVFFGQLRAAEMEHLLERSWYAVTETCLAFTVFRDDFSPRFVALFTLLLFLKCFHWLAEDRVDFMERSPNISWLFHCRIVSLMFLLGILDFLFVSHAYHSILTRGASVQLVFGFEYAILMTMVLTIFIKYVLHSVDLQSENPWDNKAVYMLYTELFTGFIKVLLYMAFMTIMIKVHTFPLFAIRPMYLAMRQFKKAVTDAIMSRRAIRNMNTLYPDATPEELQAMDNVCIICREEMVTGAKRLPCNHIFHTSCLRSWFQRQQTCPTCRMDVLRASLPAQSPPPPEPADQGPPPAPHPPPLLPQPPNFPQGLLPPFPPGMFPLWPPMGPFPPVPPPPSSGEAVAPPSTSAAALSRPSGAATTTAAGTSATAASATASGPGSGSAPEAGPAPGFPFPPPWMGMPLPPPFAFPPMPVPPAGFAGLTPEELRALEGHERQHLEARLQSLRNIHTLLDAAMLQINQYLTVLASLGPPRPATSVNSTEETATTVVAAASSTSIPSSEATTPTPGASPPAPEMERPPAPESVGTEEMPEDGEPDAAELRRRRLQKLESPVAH
UniProt Q5T011: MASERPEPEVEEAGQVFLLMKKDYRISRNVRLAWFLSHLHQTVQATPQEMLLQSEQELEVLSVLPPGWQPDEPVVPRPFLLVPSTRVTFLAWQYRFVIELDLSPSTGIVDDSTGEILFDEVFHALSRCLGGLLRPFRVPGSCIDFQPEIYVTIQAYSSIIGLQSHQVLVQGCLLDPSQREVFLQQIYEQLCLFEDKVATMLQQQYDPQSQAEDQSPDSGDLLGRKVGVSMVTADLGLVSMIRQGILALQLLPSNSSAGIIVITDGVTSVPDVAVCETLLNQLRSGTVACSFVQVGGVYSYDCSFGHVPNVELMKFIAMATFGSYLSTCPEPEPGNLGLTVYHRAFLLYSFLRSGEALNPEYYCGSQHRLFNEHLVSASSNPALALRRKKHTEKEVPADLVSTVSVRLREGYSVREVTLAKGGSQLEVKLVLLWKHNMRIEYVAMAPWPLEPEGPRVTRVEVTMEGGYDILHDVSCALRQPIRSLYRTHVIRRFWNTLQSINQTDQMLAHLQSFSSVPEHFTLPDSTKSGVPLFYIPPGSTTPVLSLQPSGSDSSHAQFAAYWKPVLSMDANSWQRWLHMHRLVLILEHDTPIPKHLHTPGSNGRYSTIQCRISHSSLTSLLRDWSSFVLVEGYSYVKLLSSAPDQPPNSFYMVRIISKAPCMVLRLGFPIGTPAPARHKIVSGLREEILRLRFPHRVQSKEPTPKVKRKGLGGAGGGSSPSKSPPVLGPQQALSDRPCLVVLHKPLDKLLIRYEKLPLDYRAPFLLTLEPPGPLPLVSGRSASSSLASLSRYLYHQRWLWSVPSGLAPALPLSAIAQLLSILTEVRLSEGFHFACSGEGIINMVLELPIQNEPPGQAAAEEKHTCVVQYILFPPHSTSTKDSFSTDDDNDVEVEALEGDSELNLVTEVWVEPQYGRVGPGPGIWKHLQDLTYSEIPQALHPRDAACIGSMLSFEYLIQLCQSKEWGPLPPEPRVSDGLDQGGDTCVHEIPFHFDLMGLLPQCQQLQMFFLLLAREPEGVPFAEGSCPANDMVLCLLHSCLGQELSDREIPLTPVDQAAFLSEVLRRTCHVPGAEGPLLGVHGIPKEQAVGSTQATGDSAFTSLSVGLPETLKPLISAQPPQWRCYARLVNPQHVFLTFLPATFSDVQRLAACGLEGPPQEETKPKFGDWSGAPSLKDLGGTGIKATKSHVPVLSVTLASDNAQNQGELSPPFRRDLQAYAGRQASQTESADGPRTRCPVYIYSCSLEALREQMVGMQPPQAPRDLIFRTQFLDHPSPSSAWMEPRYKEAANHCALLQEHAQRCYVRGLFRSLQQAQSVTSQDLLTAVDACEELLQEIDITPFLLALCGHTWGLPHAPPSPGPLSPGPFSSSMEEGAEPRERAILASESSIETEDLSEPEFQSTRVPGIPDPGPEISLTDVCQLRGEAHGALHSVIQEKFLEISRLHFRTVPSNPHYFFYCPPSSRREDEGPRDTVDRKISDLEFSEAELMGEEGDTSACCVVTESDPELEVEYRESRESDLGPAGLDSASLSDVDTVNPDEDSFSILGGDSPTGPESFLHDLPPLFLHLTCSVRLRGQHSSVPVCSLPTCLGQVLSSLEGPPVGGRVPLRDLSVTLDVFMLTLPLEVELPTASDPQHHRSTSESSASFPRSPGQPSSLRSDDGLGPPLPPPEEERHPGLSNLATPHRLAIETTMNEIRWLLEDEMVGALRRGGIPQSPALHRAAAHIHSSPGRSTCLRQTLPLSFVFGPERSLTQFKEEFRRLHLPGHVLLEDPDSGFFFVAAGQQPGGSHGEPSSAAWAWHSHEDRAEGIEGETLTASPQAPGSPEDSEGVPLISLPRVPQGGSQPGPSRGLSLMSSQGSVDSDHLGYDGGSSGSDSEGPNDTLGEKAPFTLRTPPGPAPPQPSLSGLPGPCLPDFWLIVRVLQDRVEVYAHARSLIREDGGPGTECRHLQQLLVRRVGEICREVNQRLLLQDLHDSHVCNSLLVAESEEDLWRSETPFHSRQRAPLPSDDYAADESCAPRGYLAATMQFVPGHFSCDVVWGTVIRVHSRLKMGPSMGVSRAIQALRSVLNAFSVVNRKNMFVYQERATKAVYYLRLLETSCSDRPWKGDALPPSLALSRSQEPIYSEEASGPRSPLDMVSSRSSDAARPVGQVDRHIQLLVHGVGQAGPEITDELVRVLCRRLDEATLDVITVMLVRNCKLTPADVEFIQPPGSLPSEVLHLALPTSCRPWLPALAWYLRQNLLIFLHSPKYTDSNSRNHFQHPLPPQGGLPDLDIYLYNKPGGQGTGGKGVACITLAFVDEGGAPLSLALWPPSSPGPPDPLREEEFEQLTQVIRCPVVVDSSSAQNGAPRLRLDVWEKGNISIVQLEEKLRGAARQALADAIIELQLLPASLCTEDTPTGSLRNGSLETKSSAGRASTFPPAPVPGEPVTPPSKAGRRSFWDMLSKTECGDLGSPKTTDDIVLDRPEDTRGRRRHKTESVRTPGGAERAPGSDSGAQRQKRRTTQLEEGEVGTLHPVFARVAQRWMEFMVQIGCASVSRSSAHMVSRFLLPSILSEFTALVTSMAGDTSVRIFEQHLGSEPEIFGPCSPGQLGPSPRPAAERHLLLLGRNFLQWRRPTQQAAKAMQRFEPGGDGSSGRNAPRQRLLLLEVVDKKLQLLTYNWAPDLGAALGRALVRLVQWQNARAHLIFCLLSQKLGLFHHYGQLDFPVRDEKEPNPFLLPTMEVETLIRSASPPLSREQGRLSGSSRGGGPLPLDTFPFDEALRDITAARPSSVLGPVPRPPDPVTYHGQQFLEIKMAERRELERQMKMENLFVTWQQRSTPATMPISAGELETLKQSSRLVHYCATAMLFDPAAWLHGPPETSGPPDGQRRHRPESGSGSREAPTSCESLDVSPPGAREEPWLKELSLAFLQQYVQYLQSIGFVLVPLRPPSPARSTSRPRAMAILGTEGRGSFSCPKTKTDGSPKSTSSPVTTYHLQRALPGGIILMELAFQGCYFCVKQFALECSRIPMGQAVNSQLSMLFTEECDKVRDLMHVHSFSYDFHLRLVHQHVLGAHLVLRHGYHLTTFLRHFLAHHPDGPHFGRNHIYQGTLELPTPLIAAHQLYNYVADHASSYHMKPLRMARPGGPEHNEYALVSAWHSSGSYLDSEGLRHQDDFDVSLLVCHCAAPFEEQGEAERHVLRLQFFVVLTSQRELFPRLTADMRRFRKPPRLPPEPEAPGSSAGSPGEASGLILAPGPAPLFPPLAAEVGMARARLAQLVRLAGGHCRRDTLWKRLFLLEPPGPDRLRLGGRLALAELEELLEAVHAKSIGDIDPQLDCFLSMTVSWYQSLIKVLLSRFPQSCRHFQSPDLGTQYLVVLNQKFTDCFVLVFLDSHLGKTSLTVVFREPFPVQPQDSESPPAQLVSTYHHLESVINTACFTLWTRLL
UniProt O75683: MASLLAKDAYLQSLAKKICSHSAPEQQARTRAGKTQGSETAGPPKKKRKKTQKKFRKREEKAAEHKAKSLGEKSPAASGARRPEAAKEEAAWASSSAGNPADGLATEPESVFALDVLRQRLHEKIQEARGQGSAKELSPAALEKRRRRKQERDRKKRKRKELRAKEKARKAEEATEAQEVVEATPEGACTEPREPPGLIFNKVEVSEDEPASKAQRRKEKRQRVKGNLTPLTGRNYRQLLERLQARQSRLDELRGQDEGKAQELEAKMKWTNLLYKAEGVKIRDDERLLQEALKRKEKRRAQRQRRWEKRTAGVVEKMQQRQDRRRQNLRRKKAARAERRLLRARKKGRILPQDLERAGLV
UniProt Q15542, whole entry, looked up: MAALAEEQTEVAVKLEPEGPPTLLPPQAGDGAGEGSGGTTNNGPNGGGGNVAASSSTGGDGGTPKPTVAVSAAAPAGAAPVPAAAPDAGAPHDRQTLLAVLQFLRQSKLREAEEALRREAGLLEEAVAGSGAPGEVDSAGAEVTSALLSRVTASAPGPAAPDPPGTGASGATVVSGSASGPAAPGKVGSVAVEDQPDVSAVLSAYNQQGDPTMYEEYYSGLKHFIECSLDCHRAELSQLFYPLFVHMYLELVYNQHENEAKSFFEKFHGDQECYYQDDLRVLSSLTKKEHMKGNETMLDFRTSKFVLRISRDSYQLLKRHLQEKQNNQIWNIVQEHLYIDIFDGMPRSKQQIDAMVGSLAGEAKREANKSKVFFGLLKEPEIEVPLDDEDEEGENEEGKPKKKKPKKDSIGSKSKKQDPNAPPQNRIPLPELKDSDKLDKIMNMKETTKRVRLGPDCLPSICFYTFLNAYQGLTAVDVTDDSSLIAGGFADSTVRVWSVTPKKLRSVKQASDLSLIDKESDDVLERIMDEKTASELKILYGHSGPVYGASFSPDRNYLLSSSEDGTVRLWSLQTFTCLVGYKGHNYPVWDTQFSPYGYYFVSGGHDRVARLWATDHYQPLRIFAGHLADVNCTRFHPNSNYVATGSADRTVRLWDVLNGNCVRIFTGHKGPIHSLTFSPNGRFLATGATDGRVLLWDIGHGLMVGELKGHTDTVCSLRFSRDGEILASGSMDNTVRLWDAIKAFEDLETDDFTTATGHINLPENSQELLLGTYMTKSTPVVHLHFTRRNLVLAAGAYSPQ
UniProt Q96BN2: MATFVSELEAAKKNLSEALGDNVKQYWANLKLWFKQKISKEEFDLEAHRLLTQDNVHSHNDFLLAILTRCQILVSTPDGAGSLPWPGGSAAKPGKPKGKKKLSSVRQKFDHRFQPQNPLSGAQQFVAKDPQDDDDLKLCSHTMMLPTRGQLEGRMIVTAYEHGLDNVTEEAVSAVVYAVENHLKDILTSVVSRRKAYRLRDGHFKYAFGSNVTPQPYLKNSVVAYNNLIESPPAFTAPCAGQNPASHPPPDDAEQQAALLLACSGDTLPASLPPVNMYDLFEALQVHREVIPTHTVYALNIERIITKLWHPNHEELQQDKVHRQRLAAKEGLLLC
UniProt Q86TJ2: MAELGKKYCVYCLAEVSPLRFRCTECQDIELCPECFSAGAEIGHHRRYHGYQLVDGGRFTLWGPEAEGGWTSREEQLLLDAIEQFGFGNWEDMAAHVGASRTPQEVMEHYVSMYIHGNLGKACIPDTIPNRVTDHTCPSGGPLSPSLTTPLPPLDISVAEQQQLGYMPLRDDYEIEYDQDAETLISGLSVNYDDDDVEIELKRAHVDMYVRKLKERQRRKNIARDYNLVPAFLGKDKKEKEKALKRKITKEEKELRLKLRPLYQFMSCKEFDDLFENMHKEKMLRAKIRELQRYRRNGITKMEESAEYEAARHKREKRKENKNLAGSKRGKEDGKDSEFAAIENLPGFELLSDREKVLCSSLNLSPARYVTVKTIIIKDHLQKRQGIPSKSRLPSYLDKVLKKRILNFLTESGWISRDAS
UniProt O75529: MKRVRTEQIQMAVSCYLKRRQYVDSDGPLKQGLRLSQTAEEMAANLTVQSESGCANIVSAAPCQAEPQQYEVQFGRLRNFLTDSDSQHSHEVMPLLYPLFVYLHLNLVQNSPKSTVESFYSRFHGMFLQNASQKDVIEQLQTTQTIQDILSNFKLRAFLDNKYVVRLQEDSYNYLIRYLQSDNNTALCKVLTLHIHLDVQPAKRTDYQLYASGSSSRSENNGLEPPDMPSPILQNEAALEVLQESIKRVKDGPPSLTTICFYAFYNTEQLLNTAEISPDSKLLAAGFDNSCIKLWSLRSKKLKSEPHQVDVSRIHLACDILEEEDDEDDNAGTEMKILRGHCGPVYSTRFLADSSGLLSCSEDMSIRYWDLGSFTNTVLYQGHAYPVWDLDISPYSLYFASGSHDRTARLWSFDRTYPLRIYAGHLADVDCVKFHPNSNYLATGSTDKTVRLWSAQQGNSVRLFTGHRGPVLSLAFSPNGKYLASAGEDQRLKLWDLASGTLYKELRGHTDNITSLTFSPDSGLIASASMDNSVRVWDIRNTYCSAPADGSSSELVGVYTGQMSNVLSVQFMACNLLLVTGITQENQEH

Experiments:
Assay in all cases: log2 fold change, soluble protein after heating vs DMSO (PISA); higher = thermal stabilisation; K562 lysate, 10 uM; active = over 0.2 and 3.5 SD of the protein, either way, in both replicates (recomputed)
erlotinib = compound: C#Cc1cccc(Nc2ncnc3cc(OCCOC)c(OCCOC)cc23)c1 [erlotinib]
Method in brief: (§1)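 Dounce homogenisation of K562 pellets in PBS pH 7.4 with 1 mM MgCl2 produced a crude extract, used at 1 mg/mL protein. Exposure to 10 μM compound lasted 30 min, and aliquots were then heated for 3 min across 48°C-58°C, pooled and brought to 0.5% NP-40 at 4°C. The supernatant after 21,000xg for 90 min was quantified by TMTpro 16plex LC-MS/MS with channel sums equalised. Duplicate values are given as log-two fold change in thermal stability relative to solvent controls.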

[1] = compound: C/C(=N\NC(=O)C1=CC(=CC=C1)S(=O)(=O)N2CCOCC2)/C3=C(C=CC(=C3)Cl)O
Method in brief: as §1

[2] = compound: C1=CC(=CC=C1C2=NC3=C(N2)C=C(C=C3)C(=O)N)OC4=CC=C(C=C4)Cl
Method in brief: as §1

[3] = compound: C1=CC2=C(C=CC(=C2)/C=C\3/C(=O)NC(=NCC4=CC=CS4)S3)N=C1
Method in brief: as §1

[4] = compound: C1=CC2=NC=CN=C2C=C1/C=C/3\C(=O)NC(=O)S3
Method in brief: as §1

[5] = compound: C1=CC=C(C=C1)C2=NC(=C(N2)C3=CC=NC=C3)C4=CC(=C(C=C4)Cl)O
Method in brief: as §1

[6] = compound: C1=CC=C2C(=C1)C3=NNC4=CC=CC(=C43)C2=O
Method in brief: as §1

[7] = compound: C1CCN(C1)C(=O)NC2=CC=CC(=C2)NC3=NC=C(C(=N3)NCCC4=CN=CN4)Br
Method in brief: as §1

[8] = compound: C1CN(CCC1(CC2=CC=C(C=C2)Cl)N)C3=NC=NC4=C3C=CN4
Method in brief: as §1

IRAK-1-4 Inhibitor I = compound: C1COCCN1CCN2C3=CC=CC=C3N=C2NC(=O)C4=CC(=CC=C4)[N+](=O)[O-] [IRAK-1-4 Inhibitor I]
Method in brief: as §1

ibrutinib = compound: C=CC(=O)N1CCC[C@@H](n2nc(-c3ccc(Oc4ccccc4)cc3)c3c(N)ncnc32)C1 [ibrutinib]
Method in brief: as §1

[9] = compound: CC(=O)c1cnc2ccc(-c3cc(Cl)c(O)c(Cl)c3)nc2c1N[C@H]1CC[C@H](CN(C)C)CC1
Method in brief: as §1

ralimetinib = compound: CC(C)(C)Cn1c(N)nc2ccc(-c3[nH]c(C(C)(C)C)nc3-c3ccc(F)cc3)nc21 [ralimetinib]
Method in brief: as §1

[10] = compound: CC(C)(O)CC(=O)NCCn1ccc2ncnc(Nc3ccc(Oc4cccc(C(F)(F)F)c4)c(Cl)c3)c21
Method in brief: as §1

[11] = compound: CC(C)C1=C2N=C(C=C(N2N=C1)NCC3=CC=CC=C3)NCCCCCCN
Method in brief: as §1

[12] = compound: CC1=C(C(CC(=O)N1)C2=CC=C(C=C2)C(F)(F)F)C(=O)NC3=C(C=C4C(=C3)C=NN4)F
Method in brief: as §1

[13] = compound: CC1=C(C2=C(C=C1)C(=O)C3=CC=CC=C3N2CCCN)C
Method in brief: as §1

[14] = compound: CC1=C(C=C(C=C1)NC(=O)C2=CC(=CC=C2)C(C)(C)C#N)NC3=CC4=C(C=C3)N=CN(C4=O)C
Method in brief: as §1

[15] = compound: CC1=C(C=C(C=C1)NC(=O)C2=CC(=CC=C2)N(C)C)NC(=O)C3=CC=C(C=C3)O
Method in brief: as §1

[16] = compound: CC1=CC=C(C=C1)SC2=C3C=C(SC3=CN=C2)C(=O)N
Method in brief: as §1

Measured: log2 fold change

SYVN1 (UniProt Q86TM6)
inactive: erlotinib -0.004 | [1] 0.007 | [2] -0.074 | [3] 0.041 | [4] 0.014 | [5] 0.021 | [6] -0.145 | [7] 0.048 | [8] -0.018 | IRAK-1-4 Inhibitor I 0.06 | ibrutinib 0.036 | [9] 0.032 | ralimetinib 0.037 | [10] -0.077 | [11] 0.014 | [12] 0.063 | [13] -0.008 | [14] 0.041 | [15] -0.051 | [16] -0.002

SUN2 isoform 2 (UniProt Q9UH99)
inactive: erlotinib -0.08 | [1] 0.038 | [2] -0.238 | [3] 0.067 | [4] -0.002 | [5] -0.026 | [6] -0.192 | [7] -0.144 | [8] 0.041 | IRAK-1-4 Inhibitor I -0.049 | ibrutinib -0.113 | [9] 0.086 | ralimetinib 0.055 | [10] 0.073 | [11] 0.063 | [13] -0.042 | [14] -0.001 | [15] -0.072 | [16] 0.062

SUPT16H (UniProt Q9Y5B9)
inactive: erlotinib -0.016 | [1] -0.011 | [2] -0.013 | [3] 0.009 | [4] -0.015 | [5] -0.003 | [6] -0.049 | [7] -0.023 | [8] -0.001 | IRAK-1-4 Inhibitor I -0.017 | ibrutinib -0.001 | [9] -0.012 | ralimetinib 0.001 | [10] 0.004 | [11] -0.012 | [12] 0.019 | [13] -0.201 | [14] 0.016 | [15] 0.035 | [16] -0.01

SZT2 (UniProt Q5T011)
inactive: erlotinib 0.043 | [2] -0.089 | [4] 0.134 | [5] -0.013 | [7] -0.004 | [8] 0.016 | IRAK-1-4 Inhibitor I 0.014 | ibrutinib -0.225 | [9] -0.102 | ralimetinib 0.14 | [10] -0.07 | [11] -0.135 | [12] 0.076 | [13] 0.126 | [15] -0.134 | [16] 0.105

STXBP5 (UniProt Q5T5C0)
inactive: erlotinib -0.022 | [1] -0.047 | [2] 0.031 | [3] -0.005 | [4] -0.022 | [5] 0.015 | [6] -0.018 | [7] -0.038 | [8] 0.006 | IRAK-1-4 Inhibitor I -0.026 | ibrutinib -0.001 | [9] 0.003 | ralimetinib -0.006 | [10] 0.005 | [11] -0.01 | [12] 0.014 | [13] -0.038 | [14] 0.039 | [15] -0.006 | [16] -0.008

SYNE2 isoform 2 (UniProt Q8WXH0)
inactive: erlotinib -0.09 | [1] -0.069 | [2] -0.023 | [3] -0.156 | [4] -0.04 | [5] -0.015 | [6] -0.146 | [7] -0.064 | [8] 0.037 | IRAK-1-4 Inhibitor I 0.127 | ibrutinib 0 | [9] -0.003 | ralimetinib 0.018 | [10] -0.076 | [11] -0.106 | [12] -0.153 | [13] -0.047 | [14] 0.04 | [15] -0.005 | [16] 0.006

TACC1 (UniProt O75410)
inactive: erlotinib -0.001 | [1] -0.029 | [2] -0.035 | [3] 0.011 | [4] -0.016 | [5] -0.051 | [6] 0.002 | [7] -0.01 | [8] -0.037 | IRAK-1-4 Inhibitor I 0.029 | ibrutinib 0.073 | [9] -0.022 | ralimetinib -0.007 | [10] -0.069 | [11] -0.01 | [12] 0.126 | [13] -0.038 | [14] 0.012 | [15] -0.009 | [16] -0.02

SURF6 (UniProt O75683)
inactive: erlotinib -0.035 | [1] -0.02 | [2] -0.046 | [3] 0.016 | [4] -0.015 | [5] 0.018 | [6] 0.055 | [7] -0.008 | [8] -0.006 | IRAK-1-4 Inhibitor I -0.02 | ibrutinib -0.008 | [9] -0.023 | ralimetinib -0.001 | [10] 0.023 | [11] -0.011 | [12] 0.001 | [13] -0.048 | [14] -0.024 | [15] 0.033 | [16] -0.012

TAF5 (UniProt Q15542)
inactive: erlotinib -0.078 | [1] 0.039 | [2] -0.137 | [3] -0.029 | [4] -0.079 | [5] -0.081 | [6] 0.029 | IRAK-1-4 Inhibitor I 0.051 | ibrutinib 0.049 | [9] 0.191 | ralimetinib 0.154 | [10] 0.019 | [11] 0.022 | [13] 0.064 | [15] 0.117 | [16] 0.068

SUB1 (UniProt P53999)
inactive: erlotinib -0.018 | [1] 0.006 | [2] 0.001 | [3] -0.005 | [4] -0.026 | [5] 0.027 | [6] 0.005 | [7] 0 | [8] -0.006 | IRAK-1-4 Inhibitor I -0.011 | ibrutinib 0.02 | [9] -0.003 | ralimetinib -0.023 | [10] 0.023 | [11] 0.005 | [12] -0.015 | [13] -0.012 | [14] -0.027 | [15] 0 | [16] -0.013

TADA1 (UniProt Q96BN2)
inactive: erlotinib 0.032 | [1] -0.102 | [2] 0.041 | [3] -0.186 | [4] -0.075 | [5] 0.033 | [6] -0.155 | [7] 0.114 | [8] -0.02 | IRAK-1-4 Inhibitor I -0.001 | ibrutinib -0.006 | [9] -0.013 | ralimetinib 0.055 | [10] -0.074 | [11] 0.044 | [12] 0.181 | [13] -0.023 | [14] 0.117 | [15] -0.053 | [16] -0.023

TADA2B (UniProt Q86TJ2)
inactive: erlotinib 0.08 | [1] -0.05 | [2] 0.048 | [3] -0.155 | [6] 0.151 | [11] 0.101 | [12] 0.032 | [13] 0.007 | [14] -0.016

STK4 (UniProt Q13043)
inactive: erlotinib -0.013 | [1] -0.15 | [2] -0.033 | [3] -0.061 | [4] -0.008 | [5] -0.009 | [6] 0.165 | [7] 0.187 | [8] 0.053 | IRAK-1-4 Inhibitor I 0.018 | ibrutinib 0.056 | [9] 0.324 | ralimetinib -0.006 | [10] 0.007 | [11] 0.004 | [12] -0.023 | [13] -0.015 | [14] -0.036 | [15] 0.024 | [16] -0.07

Random excerpt: 2 records from the list, in no set order.
TADA2B (UniProt Q86TJ2)
inactive: erlotinib 0.08 | [1] -0.05 | [2] 0.048 | [3] -0.155 | [6] 0.151 | [11] 0.101 | [12] 0.032 | [13] 0.007 | [14] -0.016

TAF5 (UniProt Q15542)
inactive: erlotinib -0.078 | [1] 0.039 | [2] -0.137 | [3] -0.029 | [4] -0.079 | [5] -0.081 | [6] 0.029 | IRAK-1-4 Inhibitor I 0.051 | ibrutinib 0.049 | [9] 0.191 | ralimetinib 0.154 | [10] 0.019 | [11] 0.022 | [13] 0.064 | [15] 0.117 | [16] 0.068

Remaining list, next part.

STK38 (UniProt Q15208)
inactive: erlotinib -0.018 | [1] -0.029 | [2] -0.063 | [3] -0.005 | [4] 0.038 | [5] 0.029 | [6] 0.176 | [7] -0.002 | [8] 0.055 | IRAK-1-4 Inhibitor I -0.006 | ibrutinib 0.008 | ralimetinib 0.036 | [10] 0.048 | [11] 0.025 | [12] 0.006 | [13] 0.017 | [14] 0.014 | [15] -0.003 | [16] 0.002
active: [9] 0.361

TAF5L (UniProt O75529)
inactive: erlotinib -0.094 | [1] 0.095 | [2] 0.038 | [3] -0.272 | [4] 0.112 | [5] 0.093 | [6] 0.009 | [7] 0.089 | [8] -0.016 | IRAK-1-4 Inhibitor I 0.022 | ibrutinib 0.075 | ralimetinib 0.014 | [10] -0.039 | [11] 0.038 | [12] -0.005 | [13] -0.085 | [14] 0.023 | [15] -0.057

SUCLA2 (UniProt Q9P2R7)
inactive: erlotinib 0.006 | [1] -0.015 | [2] -0.016 | [3] -0.041 | [4] -0.011 | [5] -0.012 | [6] -0.07 | [7] -0.061 | [8] -0.007 | IRAK-1-4 Inhibitor I -0.001 | ibrutinib 0.002 | [9] 0.045 | ralimetinib 0.002 | [10] 0.004 | [11] 0.004 | [12] -0.011 | [13] -0.014 | [14] -0.018 | [15] -0.018 | [16] 0.002

SUPT4H1 (UniProt P63272)
inactive: erlotinib 0.013 | [1] -0.024 | [2] 0.014 | [3] 0.017 | [4] 0.068 | [5] 0.019 | [6] -0.037 | [7] 0.117 | [8] 0.036 | IRAK-1-4 Inhibitor I -0.001 | ibrutinib -0.029 | [9] -0.017 | ralimetinib -0.097 | [10] -0.028 | [11] -0.02 | [12] -0.018 | [13] -0.018 | [14] 0.05 | [15] 0.002 | [16] -0.016
